Measurements as given in the supplement of paper PMC11006884.
The entries are a selection whose mix differs from that of the whole data set.

By UniProt entry, the sequences of proteins in these tests, tags left out. Where a name states a change or a piece, a line headed by the entry shows the natural chain unless it says otherwise.
UniProt P54577: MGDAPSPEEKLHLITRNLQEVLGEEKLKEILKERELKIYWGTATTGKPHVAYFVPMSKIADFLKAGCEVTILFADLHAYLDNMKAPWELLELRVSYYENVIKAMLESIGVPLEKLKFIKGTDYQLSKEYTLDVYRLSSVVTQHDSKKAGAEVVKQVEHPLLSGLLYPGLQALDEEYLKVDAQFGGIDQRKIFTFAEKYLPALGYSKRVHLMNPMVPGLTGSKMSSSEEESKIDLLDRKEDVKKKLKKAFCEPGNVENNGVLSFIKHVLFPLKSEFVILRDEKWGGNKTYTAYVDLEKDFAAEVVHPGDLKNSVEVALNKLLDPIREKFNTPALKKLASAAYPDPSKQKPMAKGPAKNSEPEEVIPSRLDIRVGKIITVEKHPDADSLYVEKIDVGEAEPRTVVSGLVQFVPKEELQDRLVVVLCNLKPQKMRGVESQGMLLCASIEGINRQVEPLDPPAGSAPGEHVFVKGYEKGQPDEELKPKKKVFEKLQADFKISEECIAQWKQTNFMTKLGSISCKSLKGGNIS
UniProt P54920: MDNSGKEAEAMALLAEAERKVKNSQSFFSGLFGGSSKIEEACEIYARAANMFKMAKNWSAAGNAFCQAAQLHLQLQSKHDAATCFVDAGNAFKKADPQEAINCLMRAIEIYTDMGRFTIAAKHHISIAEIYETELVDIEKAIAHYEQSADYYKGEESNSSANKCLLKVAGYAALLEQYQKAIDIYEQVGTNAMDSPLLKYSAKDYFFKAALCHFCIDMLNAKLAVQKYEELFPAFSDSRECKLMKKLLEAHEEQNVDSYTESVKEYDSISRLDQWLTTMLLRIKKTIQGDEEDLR
UniProt P52209: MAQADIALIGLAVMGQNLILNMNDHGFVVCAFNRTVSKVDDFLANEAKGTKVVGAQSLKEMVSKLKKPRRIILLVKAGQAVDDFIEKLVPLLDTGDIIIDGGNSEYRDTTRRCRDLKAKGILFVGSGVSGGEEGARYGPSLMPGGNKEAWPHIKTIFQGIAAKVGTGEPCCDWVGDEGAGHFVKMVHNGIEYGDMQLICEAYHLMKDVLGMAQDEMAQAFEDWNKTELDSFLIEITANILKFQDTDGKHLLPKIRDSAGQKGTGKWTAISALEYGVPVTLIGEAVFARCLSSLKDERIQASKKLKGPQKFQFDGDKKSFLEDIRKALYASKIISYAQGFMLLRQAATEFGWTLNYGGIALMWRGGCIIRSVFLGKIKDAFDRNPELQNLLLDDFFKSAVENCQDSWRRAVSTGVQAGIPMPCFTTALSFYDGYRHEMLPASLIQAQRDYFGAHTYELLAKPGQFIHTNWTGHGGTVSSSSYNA
UniProt P52701: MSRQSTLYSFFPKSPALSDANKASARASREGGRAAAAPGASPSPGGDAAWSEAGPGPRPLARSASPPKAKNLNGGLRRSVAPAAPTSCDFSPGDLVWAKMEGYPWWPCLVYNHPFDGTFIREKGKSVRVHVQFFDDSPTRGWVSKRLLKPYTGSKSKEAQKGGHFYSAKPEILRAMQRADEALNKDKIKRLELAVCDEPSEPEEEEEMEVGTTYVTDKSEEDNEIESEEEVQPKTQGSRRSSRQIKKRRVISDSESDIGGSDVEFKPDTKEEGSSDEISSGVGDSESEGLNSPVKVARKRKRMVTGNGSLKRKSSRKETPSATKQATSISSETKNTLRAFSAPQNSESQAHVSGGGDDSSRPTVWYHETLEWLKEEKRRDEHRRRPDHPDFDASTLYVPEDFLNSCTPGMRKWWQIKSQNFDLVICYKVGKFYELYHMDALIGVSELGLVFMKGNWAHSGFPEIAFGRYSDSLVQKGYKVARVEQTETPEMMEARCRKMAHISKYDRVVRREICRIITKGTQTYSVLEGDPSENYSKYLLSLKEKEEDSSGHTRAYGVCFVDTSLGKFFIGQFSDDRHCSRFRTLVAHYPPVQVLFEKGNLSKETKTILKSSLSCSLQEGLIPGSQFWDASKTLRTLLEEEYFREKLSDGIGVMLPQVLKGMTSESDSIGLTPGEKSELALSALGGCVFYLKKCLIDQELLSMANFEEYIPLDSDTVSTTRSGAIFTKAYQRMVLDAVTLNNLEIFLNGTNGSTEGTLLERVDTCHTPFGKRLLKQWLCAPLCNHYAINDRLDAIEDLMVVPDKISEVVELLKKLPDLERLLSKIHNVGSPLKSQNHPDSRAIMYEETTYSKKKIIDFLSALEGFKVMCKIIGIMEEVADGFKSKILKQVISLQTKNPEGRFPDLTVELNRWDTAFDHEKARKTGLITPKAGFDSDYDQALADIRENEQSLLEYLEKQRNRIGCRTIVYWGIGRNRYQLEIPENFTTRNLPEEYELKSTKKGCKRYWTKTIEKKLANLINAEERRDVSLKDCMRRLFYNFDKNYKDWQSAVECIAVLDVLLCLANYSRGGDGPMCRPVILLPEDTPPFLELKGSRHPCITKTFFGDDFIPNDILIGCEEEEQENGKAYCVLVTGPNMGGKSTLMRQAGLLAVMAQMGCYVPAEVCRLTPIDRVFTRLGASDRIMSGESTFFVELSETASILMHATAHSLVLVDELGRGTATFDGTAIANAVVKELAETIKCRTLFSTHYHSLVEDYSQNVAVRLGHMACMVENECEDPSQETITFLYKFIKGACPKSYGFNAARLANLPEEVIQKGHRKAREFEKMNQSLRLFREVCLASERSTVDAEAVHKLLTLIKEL
UniProt P60981: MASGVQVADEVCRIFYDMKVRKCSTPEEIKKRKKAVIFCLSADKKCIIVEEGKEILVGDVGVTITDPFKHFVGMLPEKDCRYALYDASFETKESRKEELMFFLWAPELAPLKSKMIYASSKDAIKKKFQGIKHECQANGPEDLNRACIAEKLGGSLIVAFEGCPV
UniProt P55211: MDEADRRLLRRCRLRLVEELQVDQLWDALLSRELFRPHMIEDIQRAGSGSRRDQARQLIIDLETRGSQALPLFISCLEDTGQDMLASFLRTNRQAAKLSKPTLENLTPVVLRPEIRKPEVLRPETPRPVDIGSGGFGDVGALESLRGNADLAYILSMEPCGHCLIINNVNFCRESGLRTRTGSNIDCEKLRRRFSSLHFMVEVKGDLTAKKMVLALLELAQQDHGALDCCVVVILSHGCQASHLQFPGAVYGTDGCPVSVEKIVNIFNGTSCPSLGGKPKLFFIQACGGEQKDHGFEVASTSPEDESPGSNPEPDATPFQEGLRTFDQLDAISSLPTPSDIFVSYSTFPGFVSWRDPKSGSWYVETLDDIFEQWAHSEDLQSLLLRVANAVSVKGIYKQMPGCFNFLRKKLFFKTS
UniProt P55084: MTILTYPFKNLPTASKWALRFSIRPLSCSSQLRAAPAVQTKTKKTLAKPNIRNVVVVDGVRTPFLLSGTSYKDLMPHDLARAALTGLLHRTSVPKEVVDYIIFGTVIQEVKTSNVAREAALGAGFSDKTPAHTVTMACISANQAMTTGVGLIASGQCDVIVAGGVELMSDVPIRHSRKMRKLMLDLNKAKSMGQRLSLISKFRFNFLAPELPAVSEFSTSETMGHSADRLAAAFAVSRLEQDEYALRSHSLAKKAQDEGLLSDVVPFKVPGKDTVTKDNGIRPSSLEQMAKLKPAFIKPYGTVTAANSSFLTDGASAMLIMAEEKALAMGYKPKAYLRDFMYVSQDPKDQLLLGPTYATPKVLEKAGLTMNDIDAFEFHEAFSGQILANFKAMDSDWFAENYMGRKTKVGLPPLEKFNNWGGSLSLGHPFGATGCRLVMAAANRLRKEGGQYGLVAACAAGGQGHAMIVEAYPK
UniProt P55212: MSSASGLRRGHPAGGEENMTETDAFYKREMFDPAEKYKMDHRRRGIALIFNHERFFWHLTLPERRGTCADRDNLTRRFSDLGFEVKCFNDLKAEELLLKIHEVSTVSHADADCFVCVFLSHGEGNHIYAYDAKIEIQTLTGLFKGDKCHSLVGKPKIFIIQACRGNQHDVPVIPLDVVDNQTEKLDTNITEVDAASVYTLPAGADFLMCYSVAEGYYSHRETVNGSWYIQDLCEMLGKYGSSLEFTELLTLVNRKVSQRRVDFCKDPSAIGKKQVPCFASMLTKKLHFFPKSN
UniProt P60983, whole entry: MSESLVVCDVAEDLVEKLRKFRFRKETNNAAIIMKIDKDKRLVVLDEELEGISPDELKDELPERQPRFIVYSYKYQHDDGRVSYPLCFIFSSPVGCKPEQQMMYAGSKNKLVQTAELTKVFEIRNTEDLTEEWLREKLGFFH
UniProt P62195, whole entry: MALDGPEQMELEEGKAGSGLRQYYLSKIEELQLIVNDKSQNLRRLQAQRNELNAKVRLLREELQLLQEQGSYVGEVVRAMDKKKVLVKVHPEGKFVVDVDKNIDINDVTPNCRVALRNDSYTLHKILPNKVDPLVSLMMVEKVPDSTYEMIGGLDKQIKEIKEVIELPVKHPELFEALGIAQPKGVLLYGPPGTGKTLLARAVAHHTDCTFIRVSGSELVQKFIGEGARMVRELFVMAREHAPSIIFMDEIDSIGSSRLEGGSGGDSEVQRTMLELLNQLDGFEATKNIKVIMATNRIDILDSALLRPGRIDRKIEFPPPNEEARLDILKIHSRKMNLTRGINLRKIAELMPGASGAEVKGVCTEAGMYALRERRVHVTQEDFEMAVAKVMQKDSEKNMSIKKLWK
UniProt P52732: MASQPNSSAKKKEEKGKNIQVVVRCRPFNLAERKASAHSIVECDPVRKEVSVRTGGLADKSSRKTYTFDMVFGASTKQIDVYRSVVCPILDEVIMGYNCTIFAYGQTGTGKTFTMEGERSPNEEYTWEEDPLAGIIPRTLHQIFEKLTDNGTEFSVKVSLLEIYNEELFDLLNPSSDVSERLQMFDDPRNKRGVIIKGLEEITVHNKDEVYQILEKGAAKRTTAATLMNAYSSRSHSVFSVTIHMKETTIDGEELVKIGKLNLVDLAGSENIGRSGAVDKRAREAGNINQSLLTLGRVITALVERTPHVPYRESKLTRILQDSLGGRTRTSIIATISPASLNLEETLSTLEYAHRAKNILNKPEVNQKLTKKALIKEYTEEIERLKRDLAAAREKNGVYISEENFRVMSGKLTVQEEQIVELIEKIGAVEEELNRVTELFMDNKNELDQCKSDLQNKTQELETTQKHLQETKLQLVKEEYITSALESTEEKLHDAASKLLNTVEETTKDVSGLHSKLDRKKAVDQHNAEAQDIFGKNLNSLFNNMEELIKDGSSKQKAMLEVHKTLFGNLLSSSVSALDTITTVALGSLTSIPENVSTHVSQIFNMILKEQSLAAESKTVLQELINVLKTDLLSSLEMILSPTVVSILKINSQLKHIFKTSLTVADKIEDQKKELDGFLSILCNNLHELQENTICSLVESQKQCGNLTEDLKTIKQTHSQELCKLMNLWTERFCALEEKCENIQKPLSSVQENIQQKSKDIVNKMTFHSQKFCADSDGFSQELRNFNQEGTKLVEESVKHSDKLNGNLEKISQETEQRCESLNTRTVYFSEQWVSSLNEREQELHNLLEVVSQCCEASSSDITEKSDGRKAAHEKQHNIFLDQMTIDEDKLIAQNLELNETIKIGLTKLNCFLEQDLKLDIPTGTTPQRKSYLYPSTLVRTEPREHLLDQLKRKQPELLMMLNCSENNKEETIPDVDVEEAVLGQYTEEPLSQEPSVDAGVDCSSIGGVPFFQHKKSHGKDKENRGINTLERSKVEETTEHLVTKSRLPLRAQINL
UniProt P53618: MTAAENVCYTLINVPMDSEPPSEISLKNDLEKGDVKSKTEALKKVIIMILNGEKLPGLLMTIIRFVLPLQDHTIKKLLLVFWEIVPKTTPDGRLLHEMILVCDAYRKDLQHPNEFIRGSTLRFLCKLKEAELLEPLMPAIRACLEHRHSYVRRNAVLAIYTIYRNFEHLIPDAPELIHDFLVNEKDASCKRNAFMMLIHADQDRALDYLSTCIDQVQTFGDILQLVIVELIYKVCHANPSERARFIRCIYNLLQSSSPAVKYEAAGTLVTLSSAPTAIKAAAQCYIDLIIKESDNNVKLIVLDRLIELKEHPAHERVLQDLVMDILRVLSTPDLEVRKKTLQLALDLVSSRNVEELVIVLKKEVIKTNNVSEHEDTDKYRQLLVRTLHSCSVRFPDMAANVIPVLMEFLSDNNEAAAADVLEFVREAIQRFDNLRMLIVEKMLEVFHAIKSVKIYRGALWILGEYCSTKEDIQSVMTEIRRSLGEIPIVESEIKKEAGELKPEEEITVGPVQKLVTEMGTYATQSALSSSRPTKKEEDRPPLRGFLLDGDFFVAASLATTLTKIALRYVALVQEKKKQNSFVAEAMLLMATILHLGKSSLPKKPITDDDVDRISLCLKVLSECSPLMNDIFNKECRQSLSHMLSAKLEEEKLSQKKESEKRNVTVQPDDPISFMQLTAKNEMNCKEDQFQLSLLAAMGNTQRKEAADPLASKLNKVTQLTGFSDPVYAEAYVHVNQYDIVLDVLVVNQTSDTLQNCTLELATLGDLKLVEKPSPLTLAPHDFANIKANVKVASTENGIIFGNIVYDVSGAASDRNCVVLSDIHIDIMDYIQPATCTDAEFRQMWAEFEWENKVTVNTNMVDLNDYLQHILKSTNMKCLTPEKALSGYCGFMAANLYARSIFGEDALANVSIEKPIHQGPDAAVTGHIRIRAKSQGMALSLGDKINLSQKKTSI

Compound: COC(=O)C#Cc1ccccc1 [methyl 3-phenylpropiolate]
Test: log2 ratio of iodoacetamide-alkyne labeling of the cysteine site, DMSO over compound (competition); higher = stronger covalent engagement of the cysteine by the compound, active = 1 or more
Conditions: 500 µM; treatment time 1 h; system: HEK293T cell lysate
How it was run: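 For each cysteine, the log2 competition ratio is mean control-channel reporter intensity over mean compound-channel reporter intensity. HEK293T lysate (2 mg/mL) was exposed to vehicle or electrophile (500 µM, 1 h, ambient temperature), labelled with iodoacetamide alkyne (1 h), clicked to sCIP-TMT reagents, digested overnight with trypsin at 37 °C, streptavidin-enriched and analysed by Orbitrap Eclipse LC-MS/MS with FAIMS and FragPipe. Cysteines quantified in only one of three replicates, each with duplicate channels, were excluded.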

log2 ratio of iodoacetamide-alkyne labeling, inactive:
CSE1L C939 (UniProt P55060) 0.518
UniProt P61981_C97 -0.213
YARS C250 (UniProt P54577) 0.0441
UniProt P62249_C25 0.47
UniProt P60709_C17 0.0458
CTBP2 C318 (UniProt P56545) 0.0531
NAPA C103 (UniProt P54920) -0.122
CTBP2 C44 (UniProt P56545) 0.023
AK2 C40 (UniProt P54819) 0.0385
PGD C289 (UniProt P52209) 0.0113
MSH6 C1117 (UniProt P52701) 0.26
UniProt P61927_C37 -0.0334
UniProt P61221_C88 0.142
DSTN C23 (UniProt P60981) 0.188
NUP98 C1027 (UniProt P52948) 0.378
UniProt P60709_C217 0.0537
CASP9 C287 (UniProt P55211) 0.994
MARS C12 (UniProt P56192) 0.428
CLCN3 C733 (UniProt P51790) -0.0337
ACTR3 C12 (UniProt P61158) 0.212
HADHB C435 (UniProt P55084) 0.735
GEMIN4 C210 (UniProt P57678) 0.946
NUBP1 C31 (UniProt P53384) 0.626
HIRA C882 (UniProt P54198) 0.416
UniProt P61160_C20 0.286
HIRA C1007 (UniProt P54198) 0.379
CASP6 C68 (UniProt P55212) 0.0483
GMFB C8 (UniProt P60983) 0.156
POLR2F C76 (UniProt P61218) 0.148
UniProt P62195_C209 -0.131
KIF11 C911 (UniProt P52732) -0.00949
UniProt P62241_C174 -0.238
CLNS1A C73 (UniProt P54105) 0.45
HNRNPH2 C290 (UniProt P55795) -0.0525
UniProt P55196_C1742 0.821
COPB1 C248 (UniProt P53618) -0.00654

Fetched one by one from the entries so far, 3 records:
log2 ratio of iodoacetamide-alkyne labeling, inactive:
UniProt P61981_C97 -0.213
POLR2F C76 (UniProt P61218) 0.148
AK2 C40 (UniProt P54819) 0.0385

Next part:

log2 ratio of iodoacetamide-alkyne labeling, active:
SUCLG1 C172 (UniProt P53597) 1.72
